Experimental data reported in the supplement of paper PMC10849652.
The other results are listed elsewhere or left out. Residues, ends and D or L forms follow the SMILES beside them. *: point of attachment. Cbz = O=C(OCc1ccccc1)*

The chains behind the UniProt entries cited, without tags or fusion partners. Where a name states a change or a piece, a line headed by the entry shows the natural chain unless it says otherwise.
UniProt P0C024: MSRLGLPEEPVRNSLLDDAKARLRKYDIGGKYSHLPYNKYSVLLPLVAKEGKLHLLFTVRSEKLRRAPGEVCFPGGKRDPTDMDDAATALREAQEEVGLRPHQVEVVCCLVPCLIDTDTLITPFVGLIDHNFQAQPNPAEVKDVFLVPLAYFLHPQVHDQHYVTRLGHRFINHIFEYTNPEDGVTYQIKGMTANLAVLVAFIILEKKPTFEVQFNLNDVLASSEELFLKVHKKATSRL
UniProt Q9NZT2: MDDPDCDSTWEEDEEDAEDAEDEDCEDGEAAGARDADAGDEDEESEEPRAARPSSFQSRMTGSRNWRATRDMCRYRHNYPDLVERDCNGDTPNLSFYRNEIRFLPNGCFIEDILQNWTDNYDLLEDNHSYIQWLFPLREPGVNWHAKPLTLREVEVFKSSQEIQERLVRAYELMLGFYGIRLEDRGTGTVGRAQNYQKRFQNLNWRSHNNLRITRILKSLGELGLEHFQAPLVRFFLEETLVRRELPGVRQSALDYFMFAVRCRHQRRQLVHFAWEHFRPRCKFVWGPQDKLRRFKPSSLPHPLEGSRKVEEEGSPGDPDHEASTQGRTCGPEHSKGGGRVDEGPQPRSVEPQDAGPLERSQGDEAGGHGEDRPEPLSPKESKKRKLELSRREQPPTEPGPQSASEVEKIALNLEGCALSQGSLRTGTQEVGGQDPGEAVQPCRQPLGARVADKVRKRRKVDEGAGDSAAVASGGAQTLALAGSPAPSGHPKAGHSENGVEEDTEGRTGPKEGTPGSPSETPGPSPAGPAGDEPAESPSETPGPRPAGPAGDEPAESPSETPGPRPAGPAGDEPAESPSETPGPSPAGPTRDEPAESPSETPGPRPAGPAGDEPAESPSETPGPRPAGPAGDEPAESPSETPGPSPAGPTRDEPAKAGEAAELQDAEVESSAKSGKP
UniProt O95747, whole entry, looked up: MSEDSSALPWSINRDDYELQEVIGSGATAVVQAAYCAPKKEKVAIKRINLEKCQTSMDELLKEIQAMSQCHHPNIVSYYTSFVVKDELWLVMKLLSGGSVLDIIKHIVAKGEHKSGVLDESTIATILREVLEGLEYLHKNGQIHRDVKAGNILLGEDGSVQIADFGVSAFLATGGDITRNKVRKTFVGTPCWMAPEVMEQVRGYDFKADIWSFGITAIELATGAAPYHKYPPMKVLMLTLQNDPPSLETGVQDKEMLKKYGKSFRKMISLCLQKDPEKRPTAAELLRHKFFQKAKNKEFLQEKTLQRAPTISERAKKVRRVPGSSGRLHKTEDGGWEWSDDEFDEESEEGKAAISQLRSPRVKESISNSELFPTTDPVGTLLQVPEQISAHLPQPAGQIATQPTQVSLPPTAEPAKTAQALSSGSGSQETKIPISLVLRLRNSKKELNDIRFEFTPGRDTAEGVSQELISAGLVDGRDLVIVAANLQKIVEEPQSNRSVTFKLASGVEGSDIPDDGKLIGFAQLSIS
UniProt Q13416: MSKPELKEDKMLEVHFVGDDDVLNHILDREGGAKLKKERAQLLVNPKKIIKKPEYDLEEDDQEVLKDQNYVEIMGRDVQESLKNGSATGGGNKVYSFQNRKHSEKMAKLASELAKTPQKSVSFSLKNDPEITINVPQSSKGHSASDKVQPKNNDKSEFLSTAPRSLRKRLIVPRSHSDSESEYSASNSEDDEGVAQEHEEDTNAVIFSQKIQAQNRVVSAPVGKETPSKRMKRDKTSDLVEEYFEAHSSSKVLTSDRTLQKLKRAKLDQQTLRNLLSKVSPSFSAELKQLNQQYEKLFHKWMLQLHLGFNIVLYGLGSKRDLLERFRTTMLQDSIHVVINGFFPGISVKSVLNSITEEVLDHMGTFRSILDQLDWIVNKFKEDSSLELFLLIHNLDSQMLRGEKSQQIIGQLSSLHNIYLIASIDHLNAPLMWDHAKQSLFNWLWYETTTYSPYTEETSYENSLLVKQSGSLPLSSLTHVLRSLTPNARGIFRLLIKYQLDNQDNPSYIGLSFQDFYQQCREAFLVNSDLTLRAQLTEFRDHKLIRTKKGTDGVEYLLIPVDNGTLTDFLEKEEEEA
UniProt P13674: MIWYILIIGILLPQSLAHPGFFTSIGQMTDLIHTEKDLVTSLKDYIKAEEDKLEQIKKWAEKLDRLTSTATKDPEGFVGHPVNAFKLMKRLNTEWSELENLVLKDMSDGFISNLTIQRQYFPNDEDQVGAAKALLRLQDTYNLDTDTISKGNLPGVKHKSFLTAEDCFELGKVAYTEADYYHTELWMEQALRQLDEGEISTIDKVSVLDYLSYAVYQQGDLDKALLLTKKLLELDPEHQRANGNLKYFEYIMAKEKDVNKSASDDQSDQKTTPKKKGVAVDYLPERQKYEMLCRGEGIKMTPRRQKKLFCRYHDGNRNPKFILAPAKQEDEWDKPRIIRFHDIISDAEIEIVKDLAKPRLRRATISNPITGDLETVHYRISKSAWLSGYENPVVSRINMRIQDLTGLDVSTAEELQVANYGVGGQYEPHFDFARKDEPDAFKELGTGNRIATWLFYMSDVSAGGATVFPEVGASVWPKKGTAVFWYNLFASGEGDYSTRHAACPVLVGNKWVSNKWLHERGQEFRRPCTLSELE
UniProt Q8WZ82: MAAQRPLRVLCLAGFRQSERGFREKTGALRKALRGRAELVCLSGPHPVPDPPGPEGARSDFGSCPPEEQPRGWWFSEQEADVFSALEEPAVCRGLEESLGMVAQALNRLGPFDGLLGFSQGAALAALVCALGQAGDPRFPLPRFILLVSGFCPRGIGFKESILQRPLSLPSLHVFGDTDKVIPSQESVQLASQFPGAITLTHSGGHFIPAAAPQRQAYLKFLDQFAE
UniProt Q96D31, whole entry, looked up: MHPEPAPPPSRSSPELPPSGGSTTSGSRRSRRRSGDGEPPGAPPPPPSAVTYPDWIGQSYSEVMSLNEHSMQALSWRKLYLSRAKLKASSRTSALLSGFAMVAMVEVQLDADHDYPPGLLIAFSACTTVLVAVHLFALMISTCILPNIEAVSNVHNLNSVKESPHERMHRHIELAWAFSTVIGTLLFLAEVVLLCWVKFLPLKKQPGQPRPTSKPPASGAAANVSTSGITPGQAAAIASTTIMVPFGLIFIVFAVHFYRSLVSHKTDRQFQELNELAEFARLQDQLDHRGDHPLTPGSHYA
UniProt Q6N063: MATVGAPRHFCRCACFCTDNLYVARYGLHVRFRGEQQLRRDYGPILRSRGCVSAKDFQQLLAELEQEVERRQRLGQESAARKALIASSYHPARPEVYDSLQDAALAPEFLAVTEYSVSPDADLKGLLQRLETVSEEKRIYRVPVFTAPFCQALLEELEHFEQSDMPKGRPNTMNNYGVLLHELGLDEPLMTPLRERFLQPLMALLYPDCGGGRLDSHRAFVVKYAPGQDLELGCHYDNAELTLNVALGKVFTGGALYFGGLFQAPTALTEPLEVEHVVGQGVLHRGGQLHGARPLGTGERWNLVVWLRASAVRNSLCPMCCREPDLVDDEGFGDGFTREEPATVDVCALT
UniProt Q5BKU9: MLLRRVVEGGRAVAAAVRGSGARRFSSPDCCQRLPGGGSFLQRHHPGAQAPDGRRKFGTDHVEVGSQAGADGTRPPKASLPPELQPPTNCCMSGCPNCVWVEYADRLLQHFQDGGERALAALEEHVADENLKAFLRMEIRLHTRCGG
UniProt P47900: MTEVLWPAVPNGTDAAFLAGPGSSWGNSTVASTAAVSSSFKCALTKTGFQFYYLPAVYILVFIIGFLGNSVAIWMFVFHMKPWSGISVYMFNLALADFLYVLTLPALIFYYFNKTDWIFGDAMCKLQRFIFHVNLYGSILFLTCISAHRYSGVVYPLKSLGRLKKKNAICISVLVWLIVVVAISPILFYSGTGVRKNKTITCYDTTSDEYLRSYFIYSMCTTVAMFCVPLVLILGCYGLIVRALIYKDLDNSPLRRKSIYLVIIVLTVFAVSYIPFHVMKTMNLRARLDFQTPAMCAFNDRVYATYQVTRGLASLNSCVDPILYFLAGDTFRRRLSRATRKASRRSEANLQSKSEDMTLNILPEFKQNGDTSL
UniProt Q8WV22: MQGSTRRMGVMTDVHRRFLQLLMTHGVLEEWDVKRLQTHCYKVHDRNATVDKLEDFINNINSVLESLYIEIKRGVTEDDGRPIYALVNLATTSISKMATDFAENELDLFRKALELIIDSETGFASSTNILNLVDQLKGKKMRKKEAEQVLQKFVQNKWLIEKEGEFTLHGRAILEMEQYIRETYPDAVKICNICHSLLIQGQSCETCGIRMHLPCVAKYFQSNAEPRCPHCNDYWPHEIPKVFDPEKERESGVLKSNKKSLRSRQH
UniProt Q8IVL6: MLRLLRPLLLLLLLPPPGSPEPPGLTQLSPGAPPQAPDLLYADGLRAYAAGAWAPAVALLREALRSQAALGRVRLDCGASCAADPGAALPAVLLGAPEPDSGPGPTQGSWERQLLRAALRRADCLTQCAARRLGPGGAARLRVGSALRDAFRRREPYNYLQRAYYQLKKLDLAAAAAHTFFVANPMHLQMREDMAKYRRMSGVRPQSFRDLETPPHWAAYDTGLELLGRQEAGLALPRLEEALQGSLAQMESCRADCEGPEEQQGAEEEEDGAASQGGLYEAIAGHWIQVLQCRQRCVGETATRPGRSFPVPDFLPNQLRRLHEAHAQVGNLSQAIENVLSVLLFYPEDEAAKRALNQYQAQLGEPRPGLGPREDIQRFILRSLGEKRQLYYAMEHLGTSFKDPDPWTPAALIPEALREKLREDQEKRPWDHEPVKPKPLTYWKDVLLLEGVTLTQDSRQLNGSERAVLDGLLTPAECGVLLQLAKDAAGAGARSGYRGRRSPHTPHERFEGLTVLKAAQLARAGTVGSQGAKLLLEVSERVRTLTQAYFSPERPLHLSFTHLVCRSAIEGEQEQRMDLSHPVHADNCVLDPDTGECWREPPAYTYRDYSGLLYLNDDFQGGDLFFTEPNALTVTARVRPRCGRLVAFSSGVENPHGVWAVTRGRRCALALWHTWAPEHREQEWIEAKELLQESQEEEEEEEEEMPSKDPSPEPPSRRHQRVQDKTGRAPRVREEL
UniProt Q6PK18: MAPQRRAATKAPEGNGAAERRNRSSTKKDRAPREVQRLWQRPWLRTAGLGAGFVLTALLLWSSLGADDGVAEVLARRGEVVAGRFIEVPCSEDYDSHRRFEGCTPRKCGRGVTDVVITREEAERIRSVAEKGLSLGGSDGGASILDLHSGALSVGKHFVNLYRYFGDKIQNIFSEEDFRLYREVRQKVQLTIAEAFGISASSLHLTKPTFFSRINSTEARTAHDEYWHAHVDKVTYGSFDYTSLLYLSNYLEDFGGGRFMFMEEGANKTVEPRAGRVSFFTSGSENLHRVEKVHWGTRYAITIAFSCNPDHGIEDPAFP
UniProt Q8N138: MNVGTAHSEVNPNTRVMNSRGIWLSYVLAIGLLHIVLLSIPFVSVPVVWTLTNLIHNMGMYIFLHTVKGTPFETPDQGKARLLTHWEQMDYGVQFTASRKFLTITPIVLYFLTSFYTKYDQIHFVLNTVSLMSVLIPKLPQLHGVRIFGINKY
UniProt Q9H4L5: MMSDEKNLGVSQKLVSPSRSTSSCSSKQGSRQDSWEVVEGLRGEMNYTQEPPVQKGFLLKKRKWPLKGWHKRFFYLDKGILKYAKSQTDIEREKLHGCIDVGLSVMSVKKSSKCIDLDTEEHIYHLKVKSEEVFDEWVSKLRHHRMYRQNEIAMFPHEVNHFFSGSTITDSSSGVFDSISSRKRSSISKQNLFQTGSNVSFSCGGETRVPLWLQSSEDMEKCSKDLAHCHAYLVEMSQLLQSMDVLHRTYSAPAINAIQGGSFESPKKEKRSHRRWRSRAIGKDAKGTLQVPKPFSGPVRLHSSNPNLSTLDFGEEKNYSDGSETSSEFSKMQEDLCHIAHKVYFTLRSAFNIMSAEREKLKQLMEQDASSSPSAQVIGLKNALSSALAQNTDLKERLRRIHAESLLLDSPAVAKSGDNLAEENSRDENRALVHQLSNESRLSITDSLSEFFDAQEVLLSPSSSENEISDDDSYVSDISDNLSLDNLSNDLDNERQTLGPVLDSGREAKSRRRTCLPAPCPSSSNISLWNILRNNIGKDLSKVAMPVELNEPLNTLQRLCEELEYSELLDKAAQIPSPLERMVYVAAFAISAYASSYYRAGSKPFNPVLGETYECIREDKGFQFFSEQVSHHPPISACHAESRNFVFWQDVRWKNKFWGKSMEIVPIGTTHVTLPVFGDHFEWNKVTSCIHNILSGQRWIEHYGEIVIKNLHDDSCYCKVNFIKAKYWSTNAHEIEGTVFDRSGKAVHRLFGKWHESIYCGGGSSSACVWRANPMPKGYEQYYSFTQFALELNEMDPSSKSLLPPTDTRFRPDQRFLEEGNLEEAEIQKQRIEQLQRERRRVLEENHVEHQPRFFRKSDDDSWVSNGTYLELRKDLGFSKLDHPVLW

What was measured:
Test in all cases: log2 fold change, soluble protein after heating vs DMSO (PISA); higher = thermal stabilisation; K562 cells, 10 uM, 30 min; active = over 0.2 and 3.5 SD of the protein, either way, in both replicates (recomputed)
IRAK-1-4 Inhibitor I = compound: C1COCCN1CCN2C3=CC=CC=C3N=C2NC(=O)C4=CC(=CC=C4)[N+](=O)[O-] [IRAK-1-4 Inhibitor I]
Method in brief: (§1)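 Thermal stability values are relative to control samples and come from duplicates. They are expressed as log2 fold changes. For measurement, K562 cells (2×10^6 cells/mL) received 10 μM compound for 30 min, and aliquots were heated for 3 min over 48°C-58°C, pooled, and extracted at 4°C in PBS with 0.5% NP-40. Soluble protein, the supernatant after 21,000xg for 90 min, was quantified by TMTpro 16plex LC-MS/MS with equalised channel sums.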

ibrutinib = compound: C=CC(=O)N1CCC[C@@H](n2nc(-c3ccc(Oc4ccccc4)cc3)c3c(N)ncnc32)C1 [ibrutinib]
Method in brief: as §1

ralimetinib = compound: CC(C)(C)Cn1c(N)nc2ccc(-c3[nH]c(C(C)(C)C)nc3-c3ccc(F)cc3)nc21 [ralimetinib]
Method in brief: as §1

[1] = compound: CC(C)(O)CC(=O)NCCn1ccc2ncnc(Nc3ccc(Oc4cccc(C(F)(F)F)c4)c(Cl)c3)c21
Method in brief: as §1

[2] = compound: CC(C)C1=C2N=C(C=C(N2N=C1)NCC3=CC=CC=C3)NCCCCCCN
Method in brief: as §1

[3] = compound: CC(C)C[C@@H](C=O)NC(=O)[C@H](CC(C)C)NC(=O)[C@H](CC(C)C)NC(=O)OCc1ccccc1
Method in brief: as §1

pinometostat = compound: CC(C)N(C[C@H]1O[C@@H](n2cnc3c(N)ncnc32)[C@H](O)[C@@H]1O)[C@H]1C[C@@H](CCc2nc3cc(C(C)(C)C)ccc3[nH]2)C1 [pinometostat]
Method in brief: as §1

[4] = compound: CC1=C(C2=C(C=C1)C(=O)C3=CC=CC=C3N2CCCN)C
Method in brief: as §1

[5] = compound: CC1=C(C=C(C=C1)NC(=O)C2=CC(=CC=C2)C(C)(C)C#N)NC3=CC4=C(C=C3)N=CN(C4=O)C
Method in brief: as §1

[6] = compound: CC1=C(C=C(C=C1)NC(=O)C2=CC(=CC=C2)N(C)C)NC(=O)C3=CC=C(C=C3)O
Method in brief: as §1

[7] = compound: CC1=NC(=CC=C1)C2=C(N=C(N2)C(C)(C)C)C3=CC4=NC=CN=C4C=C3
Method in brief: as §1

Nexturastat A = compound: CCCCN(Cc1ccc(C(=O)NO)cc1)C(=O)Nc1ccccc1 [Nexturastat A]
Method in brief: as §1

givinostat = compound: CCN(CC)Cc1ccc2cc(COC(=O)Nc3ccc(C(=O)NO)cc3)ccc2c1 [givinostat]
Method in brief: as §1

barasertib = compound: CCN(CCCOc1ccc2c(Nc3cc(CC(=O)Nc4cccc(F)c4)[nH]n3)ncnc2c1)CCOP(=O)(O)O [barasertib]
Method in brief: as §1

[8] = compound: CC(=O)c1cnc2ccc(-c3cc(Cl)c(O)c(Cl)c3)nc2c1N[C@H]1CC[C@H](CN(C)C)CC1
Method in brief: as §1

[9] = compound: CC1=CC=C(C=C1)SC2=C3C=C(SC3=CN=C2)C(=O)N
Method in brief: as §1

vemurafenib = compound: CCCS(=O)(=O)Nc1ccc(F)c(C(=O)c2c[nH]c3ncc(-c4ccc(Cl)cc4)cc23)c1F [vemurafenib]
Method in brief: as §1

[10] = compound: CCCS(=O)(=O)Nc1ccc(F)c(C(=O)c2c[nH]c3ncc(Cl)cc23)c1F
Method in brief: as §1

[11] = compound: CCCc1cc(C)[nH]c(=O)c1CNC(=O)c1cc(-c2ccnc(N3CCN(C)CC3)c2)cc2c1cnn2C(C)C
Method in brief: as §1

[12] = compound: CC1=C(C(CC(=O)N1)C2=CC=C(C=C2)C(F)(F)F)C(=O)NC3=C(C=C4C(=C3)C=NN4)F
Method in brief: as §1

Row | Target | log2 fold change (IRAK-1-4 Inhibitor I) | log2 fold change (ibrutinib) | log2 fold change (ralimetinib) | log2 fold change [1] | log2 fold change [2] | log2 fold change [3] | log2 fold change (pinometostat) | log2 fold change [4] | log2 fold change [5] | log2 fold change [6] | log2 fold change [7] | log2 fold change (Nexturastat A) | log2 fold change (givinostat) | log2 fold change (barasertib) | log2 fold change [8] | log2 fold change [9] | log2 fold change (vemurafenib) | log2 fold change [10] | log2 fold change [11] | log2 fold change [12]
1 | NUDT7 (UniProt P0C024) | inactive: -0.02 | inactive: 0.205 | inactive: -0.52 | inactive: -0.467 | inactive: 0 | inactive: 0.207 | inactive: -0.231 | inactive: 0.039 | inactive: 0.016 | inactive: -0.021 | inactive: 0.197 | inactive: 0.014 | inactive: 0.017 | active: 0.666 |  |  |  |  |  | 
2 | NUDT1 (UniProt P36639) | inactive: 0.025 | active: 0.943 | active: 1.69 | inactive: -0.263 | active: 0.946 | inactive: -0.082 | inactive: -0.017 | inactive: 0.074 | inactive: -0.016 | inactive: -0.058 | inactive: -0.164 | inactive: -0.086 | inactive: -0.042 | inactive: -0.03 | active: 0.816 | inactive: -0.064 | inactive: -0.004 | inactive: 0.209 | inactive: -0.026 | 
3 | OGFR (UniProt Q9NZT2) | inactive: -0.023 | inactive: 0.001 | inactive: -0.014 | inactive: 0.109 | inactive: -0.028 | inactive: -0.008 | inactive: 0.149 | inactive: 0.044 | inactive: -0.023 | inactive: 0.018 | inactive: 0.035 | inactive: 0.057 | inactive: -0.02 | inactive: 0.125 | inactive: -0.235 | inactive: -0.022 | inactive: 0.075 | inactive: 0.002 | inactive: 0.01 | 
4 | ORC3 isoform 2 (UniProt Q9UBD5) | inactive: -0.113 | inactive: -0.015 | inactive: -0.059 | inactive: -0.383 | inactive: -0.338 | inactive: -0.013 | inactive: 0.012 | inactive: -0.049 | inactive: -0.027 | inactive: -0.056 | inactive: 0.075 | inactive: -0.124 | inactive: 0.145 | inactive: 0.178 | inactive: -0.132 | inactive: 0.146 | inactive: 0.012 | inactive: 0.143 | inactive: 0.044 | 
5 | OXSR1 (UniProt O95747) | inactive: 0.014 | inactive: -0.022 | inactive: 0.045 | inactive: -0.115 | inactive: -0.111 | inactive: -0.05 | inactive: 0.026 | inactive: 0.106 | inactive: 0.019 | inactive: -0.11 | inactive: 0.004 | inactive: -0.021 | inactive: 0.055 | inactive: 0.035 | active: -0.341 | inactive: 0.014 | inactive: 0.037 | inactive: 0.038 | inactive: 0.007 | 
6 | OTUD4 (UniProt Q01804) | inactive: 0.007 | inactive: 0.008 | inactive: 0.1 | inactive: 0.013 | inactive: 0.035 | inactive: 0.052 | inactive: 0.128 | inactive: 0.244 | inactive: -0.038 | inactive: -0.017 | inactive: -0.069 | inactive: 0.055 | inactive: 0.05 | inactive: -0.083 | inactive: -0.029 | inactive: -0.035 | inactive: -0.016 | inactive: 0.007 | inactive: -0.03 | 
7 | ORC2 (UniProt Q13416) | inactive: 0.094 | inactive: -0.066 | inactive: 0.062 | inactive: -0.172 | inactive: -0.172 | inactive: 0.068 | inactive: -0.105 | inactive: -0.015 | inactive: 0.011 | inactive: -0.039 | inactive: -0.069 | inactive: 0.029 | inactive: 0.188 | inactive: 0.015 |  | inactive: 0.017 |  | inactive: 0.012 | inactive: -0.055 | inactive: 0.092
8 | P4HA1 isoform 2 (UniProt P13674) | inactive: -0.146 | inactive: 0.009 | inactive: 0.014 | inactive: 0.035 |  | inactive: 0.024 | inactive: 0.116 | inactive: 0.051 | inactive: -0.041 | inactive: -0.101 | inactive: -0.105 | inactive: 0.001 |  | inactive: 0 | inactive: -0.133 | inactive: -0.087 | inactive: -0.032 | inactive: -0.065 | inactive: 0.014 | inactive: 0.113
9 | OVCA2 (UniProt Q8WZ82) | inactive: -0.087 | inactive: 0.023 | inactive: -0.1 |  |  | inactive: 0.095 | inactive: 0.021 |  |  | inactive: -0.132 | inactive: 0.086 |  |  | inactive: 0.06 | inactive: -0.019 | inactive: 0.013 |  | inactive: -0.048 | inactive: -0.305 | 
10 | ORAI1 (UniProt Q96D31) | inactive: 0.053 | inactive: -0.088 | inactive: -0.091 | inactive: -0.055 | inactive: 0.038 | inactive: 0.138 | inactive: -0.079 | inactive: 0.042 |  | inactive: 0 | inactive: 0.016 | inactive: -0.07 | inactive: -0.061 | inactive: -0.019 |  | inactive: -0.004 | inactive: 0.189 | inactive: -0.028 | inactive: -0.013 | inactive: 0.072
11 | OGFOD2 (UniProt Q6N063) | inactive: 0.016 | inactive: -0.023 | inactive: 0.011 | inactive: -0.031 | inactive: -0.079 | inactive: 0.002 | inactive: 0.025 | inactive: -0.073 |  | inactive: -0.007 | inactive: -0.091 | inactive: 0.117 | inactive: -0.041 | inactive: 0.059 | inactive: -0.102 |  | inactive: 0.001 |  | inactive: 0.037 | 
12 | OXSM (UniProt Q9NWU1) | inactive: 0.032 | inactive: 0.064 | inactive: 0.008 | inactive: 0.031 | inactive: 0.041 | inactive: -0.025 | inactive: -0.067 | inactive: -0.011 | inactive: -0.023 | inactive: -0.057 | inactive: 0.003 | inactive: -0.061 | active: -0.234 | inactive: -0.034 | inactive: 0.017 | inactive: 0.023 | inactive: 0.01 | inactive: 0.045 | inactive: -0.03 | 
13 | OXLD1 (UniProt Q5BKU9) |  |  |  |  |  |  |  |  |  |  |  |  |  |  |  |  |  |  | inactive: 0.051 | inactive: 0.034
14 | PABPC1 (UniProt E5RJM8) | inactive: 0.074 |  |  |  |  |  | inactive: -0.175 |  | inactive: -0.089 |  | inactive: -0.35 |  |  |  |  | inactive: -0.073 |  | inactive: -0.045 |  | 
15 | P2RY1 (UniProt P47900) |  |  |  | inactive: 0.121 | inactive: 0.233 |  |  |  |  |  |  | inactive: 0.229 | inactive: -0.153 |  | inactive: 0.113 | inactive: -0.122 |  | inactive: -0.06 | inactive: 0.173 | 
16 | NSMCE1 (UniProt Q8WV22) | inactive: 0.037 |  | inactive: -0.081 | inactive: 0.054 | inactive: 0.066 | inactive: 0.022 | inactive: 0.003 | inactive: -0.239 | inactive: -0.018 | inactive: -0.108 | inactive: -0.029 | inactive: 0.008 | inactive: -0.035 |  | inactive: -0.067 | inactive: -0.01 | inactive: 0.119 | inactive: 0.012 | inactive: 0.004 | inactive: -0.212
17 | P3H3 (UniProt Q8IVL6) |  |  |  | inactive: -0.022 |  |  |  | inactive: -0.149 |  |  |  | inactive: 0.162 |  |  |  |  |  |  | inactive: 0.13 | 
18 | ODC1 (UniProt P11926) | inactive: -0.137 |  |  |  | inactive: -0.049 |  | inactive: -0.058 |  |  |  | inactive: 0.142 |  | inactive: 0.061 |  | inactive: 0.093 | inactive: -0.021 |  | inactive: -0.031 |  | inactive: 0.313
19 | OGFOD3 (UniProt Q6PK18) |  | inactive: 0.035 | inactive: -0.227 |  |  | inactive: 0.131 |  |  |  | inactive: -0.109 |  |  |  | inactive: 0.079 |  | inactive: -0.033 |  | inactive: 0.046 | inactive: 0.091 | inactive: 0.014
20 | ORMDL3 (UniProt Q8N138) |  |  |  |  | inactive: -0.105 |  |  |  |  |  |  |  | inactive: 0 |  |  | inactive: -0.133 |  | inactive: 0.044 |  | 
21 | OSBPL3 (UniProt Q9H4L5) | inactive: -0.083 |  | inactive: 0.309 | inactive: 0.252 | inactive: 0.506 | inactive: 0.206 | inactive: 0.204 | inactive: -0.069 | inactive: 0.35 | inactive: 0.04 | inactive: -0.062 | inactive: 0.471 | inactive: -0.204 |  | inactive: -0.277 | inactive: 0.006 | inactive: -0.267 | inactive: -0.09 |  | 

Records 14 through 18 from above:
Row | Target | log2 fold change (IRAK-1-4 Inhibitor I) | log2 fold change (ibrutinib) | log2 fold change (ralimetinib) | log2 fold change [1] | log2 fold change [2] | log2 fold change [3] | log2 fold change (pinometostat) | log2 fold change [4] | log2 fold change [5] | log2 fold change [6] | log2 fold change [7] | log2 fold change (Nexturastat A) | log2 fold change (givinostat) | log2 fold change (barasertib) | log2 fold change [8] | log2 fold change [9] | log2 fold change (vemurafenib) | log2 fold change [10] | log2 fold change [11] | log2 fold change [12]
14 | PABPC1 (UniProt E5RJM8) | inactive: 0.074 |  |  |  |  |  | inactive: -0.175 |  | inactive: -0.089 |  | inactive: -0.35 |  |  |  |  | inactive: -0.073 |  | inactive: -0.045 |  | 
15 | P2RY1 (UniProt P47900) |  |  |  | inactive: 0.121 | inactive: 0.233 |  |  |  |  |  |  | inactive: 0.229 | inactive: -0.153 |  | inactive: 0.113 | inactive: -0.122 |  | inactive: -0.06 | inactive: 0.173 | 
16 | NSMCE1 (UniProt Q8WV22) | inactive: 0.037 |  | inactive: -0.081 | inactive: 0.054 | inactive: 0.066 | inactive: 0.022 | inactive: 0.003 | inactive: -0.239 | inactive: -0.018 | inactive: -0.108 | inactive: -0.029 | inactive: 0.008 | inactive: -0.035 |  | inactive: -0.067 | inactive: -0.01 | inactive: 0.119 | inactive: 0.012 | inactive: 0.004 | inactive: -0.212
17 | P3H3 (UniProt Q8IVL6) |  |  |  | inactive: -0.022 |  |  |  | inactive: -0.149 |  |  |  | inactive: 0.162 |  |  |  |  |  |  | inactive: 0.13 | 
18 | ODC1 (UniProt P11926) | inactive: -0.137 |  |  |  | inactive: -0.049 |  | inactive: -0.058 |  |  |  | inactive: 0.142 |  | inactive: 0.061 |  | inactive: 0.093 | inactive: -0.021 |  | inactive: -0.031 |  | inactive: 0.313
